The supplement of paper PMC10849652
The other results are listed elsewhere or left out.

Chains of the proteins cited; added tags and fusions are not shown. Lines headed by an entry give the natural chain unless they say otherwise; changes in a name come on top.
UniProt Q9NX00: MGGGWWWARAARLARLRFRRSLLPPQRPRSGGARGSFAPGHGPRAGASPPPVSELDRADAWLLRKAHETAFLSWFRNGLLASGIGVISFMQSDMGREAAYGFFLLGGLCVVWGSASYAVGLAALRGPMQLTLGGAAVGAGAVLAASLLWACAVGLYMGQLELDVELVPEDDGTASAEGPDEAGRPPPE
UniProt Q9HD45: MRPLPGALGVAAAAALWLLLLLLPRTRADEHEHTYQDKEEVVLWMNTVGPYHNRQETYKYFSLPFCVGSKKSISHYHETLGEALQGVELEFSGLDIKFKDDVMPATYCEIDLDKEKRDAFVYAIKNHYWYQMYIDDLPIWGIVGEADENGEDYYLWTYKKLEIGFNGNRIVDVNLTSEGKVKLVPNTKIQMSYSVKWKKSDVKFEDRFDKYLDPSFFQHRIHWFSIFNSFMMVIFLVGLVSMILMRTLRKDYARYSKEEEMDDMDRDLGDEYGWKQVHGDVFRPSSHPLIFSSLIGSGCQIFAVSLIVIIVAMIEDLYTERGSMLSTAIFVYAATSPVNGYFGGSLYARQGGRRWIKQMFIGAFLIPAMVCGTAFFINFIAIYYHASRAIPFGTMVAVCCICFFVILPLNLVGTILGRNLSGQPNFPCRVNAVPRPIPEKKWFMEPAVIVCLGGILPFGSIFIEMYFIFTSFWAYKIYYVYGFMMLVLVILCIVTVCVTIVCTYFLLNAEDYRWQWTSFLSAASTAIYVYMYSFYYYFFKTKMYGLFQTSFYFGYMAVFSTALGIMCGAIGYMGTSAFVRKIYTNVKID
UniProt Q9NWX6: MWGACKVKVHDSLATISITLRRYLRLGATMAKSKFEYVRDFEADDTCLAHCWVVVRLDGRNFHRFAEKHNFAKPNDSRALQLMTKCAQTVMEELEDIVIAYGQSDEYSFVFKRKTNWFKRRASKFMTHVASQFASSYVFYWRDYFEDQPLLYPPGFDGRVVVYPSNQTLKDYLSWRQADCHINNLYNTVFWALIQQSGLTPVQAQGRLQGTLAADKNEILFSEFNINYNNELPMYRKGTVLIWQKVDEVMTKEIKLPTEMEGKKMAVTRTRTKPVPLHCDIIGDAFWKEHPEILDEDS
UniProt P62072: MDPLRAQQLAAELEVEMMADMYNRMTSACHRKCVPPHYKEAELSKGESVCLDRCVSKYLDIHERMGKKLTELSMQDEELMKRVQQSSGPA
UniProt O75663: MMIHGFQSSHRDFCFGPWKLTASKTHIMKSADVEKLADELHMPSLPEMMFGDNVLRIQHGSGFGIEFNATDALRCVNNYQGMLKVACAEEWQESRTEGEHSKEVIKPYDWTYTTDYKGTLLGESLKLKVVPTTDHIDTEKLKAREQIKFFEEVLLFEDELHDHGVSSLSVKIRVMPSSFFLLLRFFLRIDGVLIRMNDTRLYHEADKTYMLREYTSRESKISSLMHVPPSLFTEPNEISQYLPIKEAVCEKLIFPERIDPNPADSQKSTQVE
UniProt Q8IUX1: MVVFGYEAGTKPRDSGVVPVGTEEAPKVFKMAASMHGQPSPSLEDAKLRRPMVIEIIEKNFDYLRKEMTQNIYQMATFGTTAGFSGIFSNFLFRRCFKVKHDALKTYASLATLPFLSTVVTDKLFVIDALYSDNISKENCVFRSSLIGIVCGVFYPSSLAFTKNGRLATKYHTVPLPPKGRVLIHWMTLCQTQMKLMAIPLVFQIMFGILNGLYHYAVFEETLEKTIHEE
UniProt Q8TBQ9: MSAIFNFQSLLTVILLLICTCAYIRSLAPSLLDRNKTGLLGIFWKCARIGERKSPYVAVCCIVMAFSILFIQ
UniProt Q8WUH2: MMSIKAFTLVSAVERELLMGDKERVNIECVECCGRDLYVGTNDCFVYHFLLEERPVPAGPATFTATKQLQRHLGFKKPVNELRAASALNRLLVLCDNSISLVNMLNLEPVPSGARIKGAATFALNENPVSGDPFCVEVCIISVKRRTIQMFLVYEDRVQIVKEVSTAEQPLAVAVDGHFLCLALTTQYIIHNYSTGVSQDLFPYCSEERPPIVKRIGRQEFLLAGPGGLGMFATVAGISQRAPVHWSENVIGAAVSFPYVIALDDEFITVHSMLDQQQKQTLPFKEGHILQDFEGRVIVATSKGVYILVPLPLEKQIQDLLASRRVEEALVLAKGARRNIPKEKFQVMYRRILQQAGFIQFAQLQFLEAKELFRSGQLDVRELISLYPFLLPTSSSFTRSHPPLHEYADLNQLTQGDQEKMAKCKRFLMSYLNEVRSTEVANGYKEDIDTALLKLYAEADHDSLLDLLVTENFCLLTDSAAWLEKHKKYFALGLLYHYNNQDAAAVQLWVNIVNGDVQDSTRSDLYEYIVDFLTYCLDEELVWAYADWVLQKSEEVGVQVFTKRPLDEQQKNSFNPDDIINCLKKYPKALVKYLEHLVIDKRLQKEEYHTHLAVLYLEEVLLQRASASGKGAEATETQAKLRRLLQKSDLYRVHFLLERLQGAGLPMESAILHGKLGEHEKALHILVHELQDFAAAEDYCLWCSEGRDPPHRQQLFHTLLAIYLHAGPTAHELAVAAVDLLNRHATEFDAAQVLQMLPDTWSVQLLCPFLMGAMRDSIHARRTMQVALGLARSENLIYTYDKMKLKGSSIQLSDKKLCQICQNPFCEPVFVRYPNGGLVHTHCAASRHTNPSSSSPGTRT
UniProt Q96MV1: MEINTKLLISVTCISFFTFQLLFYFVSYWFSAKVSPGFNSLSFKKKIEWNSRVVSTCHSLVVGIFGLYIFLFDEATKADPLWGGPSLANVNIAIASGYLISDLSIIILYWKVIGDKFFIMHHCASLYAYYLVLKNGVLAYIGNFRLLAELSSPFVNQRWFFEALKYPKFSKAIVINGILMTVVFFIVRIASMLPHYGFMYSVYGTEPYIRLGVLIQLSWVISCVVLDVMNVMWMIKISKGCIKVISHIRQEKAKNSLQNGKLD
UniProt Q8WUY1: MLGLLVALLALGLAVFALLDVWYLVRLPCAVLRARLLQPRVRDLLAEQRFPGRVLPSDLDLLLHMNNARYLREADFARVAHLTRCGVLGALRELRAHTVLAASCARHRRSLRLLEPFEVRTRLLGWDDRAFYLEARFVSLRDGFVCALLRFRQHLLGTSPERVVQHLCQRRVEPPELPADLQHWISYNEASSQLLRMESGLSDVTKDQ
UniProt Q9BVV7: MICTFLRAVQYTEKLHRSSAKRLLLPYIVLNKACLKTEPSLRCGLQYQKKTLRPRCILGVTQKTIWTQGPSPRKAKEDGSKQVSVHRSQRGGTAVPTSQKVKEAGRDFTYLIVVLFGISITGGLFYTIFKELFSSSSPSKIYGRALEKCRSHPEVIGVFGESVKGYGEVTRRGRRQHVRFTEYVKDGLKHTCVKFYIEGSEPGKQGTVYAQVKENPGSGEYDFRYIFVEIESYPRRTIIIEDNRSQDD
UniProt Q96RS0: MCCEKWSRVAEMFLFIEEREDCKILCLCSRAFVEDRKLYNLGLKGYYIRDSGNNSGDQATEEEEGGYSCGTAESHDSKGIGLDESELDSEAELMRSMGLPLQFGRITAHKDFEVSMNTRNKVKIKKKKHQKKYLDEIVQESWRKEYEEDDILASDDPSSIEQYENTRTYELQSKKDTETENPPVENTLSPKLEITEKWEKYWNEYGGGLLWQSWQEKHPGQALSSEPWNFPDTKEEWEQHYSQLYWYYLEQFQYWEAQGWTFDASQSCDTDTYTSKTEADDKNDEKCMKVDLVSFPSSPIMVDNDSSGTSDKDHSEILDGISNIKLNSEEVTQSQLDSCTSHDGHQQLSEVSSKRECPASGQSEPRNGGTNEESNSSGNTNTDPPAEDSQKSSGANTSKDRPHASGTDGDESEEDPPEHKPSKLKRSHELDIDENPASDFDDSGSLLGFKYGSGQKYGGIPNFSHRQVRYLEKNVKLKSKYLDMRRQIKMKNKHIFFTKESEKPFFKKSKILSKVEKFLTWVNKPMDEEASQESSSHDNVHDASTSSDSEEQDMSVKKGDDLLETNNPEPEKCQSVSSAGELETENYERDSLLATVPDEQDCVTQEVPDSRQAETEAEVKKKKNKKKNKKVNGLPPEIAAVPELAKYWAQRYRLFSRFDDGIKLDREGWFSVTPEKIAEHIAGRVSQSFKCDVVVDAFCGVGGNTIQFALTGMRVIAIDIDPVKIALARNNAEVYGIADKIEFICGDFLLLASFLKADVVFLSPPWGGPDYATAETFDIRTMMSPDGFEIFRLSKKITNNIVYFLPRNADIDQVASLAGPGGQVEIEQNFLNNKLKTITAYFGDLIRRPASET
UniProt Q8N9M5: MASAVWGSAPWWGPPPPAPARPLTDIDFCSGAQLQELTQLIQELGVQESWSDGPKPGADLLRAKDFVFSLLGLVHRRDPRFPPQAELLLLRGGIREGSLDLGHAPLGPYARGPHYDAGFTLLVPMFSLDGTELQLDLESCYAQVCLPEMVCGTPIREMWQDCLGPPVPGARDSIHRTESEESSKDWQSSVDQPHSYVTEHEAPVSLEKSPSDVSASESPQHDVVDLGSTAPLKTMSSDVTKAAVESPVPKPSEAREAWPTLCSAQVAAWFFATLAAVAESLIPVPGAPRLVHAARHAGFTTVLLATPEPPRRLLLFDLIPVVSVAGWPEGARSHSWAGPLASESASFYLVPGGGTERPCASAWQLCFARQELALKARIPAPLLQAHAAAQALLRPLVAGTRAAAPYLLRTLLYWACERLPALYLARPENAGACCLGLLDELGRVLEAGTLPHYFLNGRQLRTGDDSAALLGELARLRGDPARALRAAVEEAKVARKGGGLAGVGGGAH
UniProt Q8N131: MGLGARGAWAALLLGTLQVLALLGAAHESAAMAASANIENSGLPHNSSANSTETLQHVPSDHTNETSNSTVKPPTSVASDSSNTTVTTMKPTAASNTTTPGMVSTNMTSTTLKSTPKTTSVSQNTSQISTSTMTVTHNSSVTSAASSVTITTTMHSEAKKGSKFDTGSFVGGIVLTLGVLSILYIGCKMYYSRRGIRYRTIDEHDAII
UniProt Q8TDI8: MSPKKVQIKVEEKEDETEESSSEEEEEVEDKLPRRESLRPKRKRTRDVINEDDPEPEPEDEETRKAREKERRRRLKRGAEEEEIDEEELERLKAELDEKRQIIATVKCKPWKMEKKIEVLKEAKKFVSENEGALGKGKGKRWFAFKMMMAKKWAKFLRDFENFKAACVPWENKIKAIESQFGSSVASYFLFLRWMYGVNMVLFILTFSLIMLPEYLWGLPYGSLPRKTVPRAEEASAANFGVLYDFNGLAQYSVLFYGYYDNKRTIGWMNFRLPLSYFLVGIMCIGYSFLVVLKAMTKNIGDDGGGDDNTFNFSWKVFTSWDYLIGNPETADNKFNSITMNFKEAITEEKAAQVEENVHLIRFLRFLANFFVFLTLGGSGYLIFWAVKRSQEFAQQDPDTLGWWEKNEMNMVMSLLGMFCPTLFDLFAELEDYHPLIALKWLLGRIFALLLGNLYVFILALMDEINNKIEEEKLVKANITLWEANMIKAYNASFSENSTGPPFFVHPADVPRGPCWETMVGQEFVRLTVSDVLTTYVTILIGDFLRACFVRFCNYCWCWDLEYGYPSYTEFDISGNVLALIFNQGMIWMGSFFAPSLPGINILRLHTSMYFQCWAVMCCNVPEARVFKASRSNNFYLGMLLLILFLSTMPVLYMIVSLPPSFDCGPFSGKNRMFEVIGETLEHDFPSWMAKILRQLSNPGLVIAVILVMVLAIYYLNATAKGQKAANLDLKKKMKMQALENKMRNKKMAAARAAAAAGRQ
UniProt Q9BVW5: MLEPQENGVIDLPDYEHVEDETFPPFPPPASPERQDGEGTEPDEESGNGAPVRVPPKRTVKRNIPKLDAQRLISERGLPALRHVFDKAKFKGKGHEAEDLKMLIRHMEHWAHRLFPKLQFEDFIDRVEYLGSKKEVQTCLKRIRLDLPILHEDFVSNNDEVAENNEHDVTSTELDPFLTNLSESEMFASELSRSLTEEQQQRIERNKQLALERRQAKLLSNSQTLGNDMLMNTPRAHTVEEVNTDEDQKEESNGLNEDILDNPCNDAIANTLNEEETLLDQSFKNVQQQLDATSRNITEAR
UniProt P31483: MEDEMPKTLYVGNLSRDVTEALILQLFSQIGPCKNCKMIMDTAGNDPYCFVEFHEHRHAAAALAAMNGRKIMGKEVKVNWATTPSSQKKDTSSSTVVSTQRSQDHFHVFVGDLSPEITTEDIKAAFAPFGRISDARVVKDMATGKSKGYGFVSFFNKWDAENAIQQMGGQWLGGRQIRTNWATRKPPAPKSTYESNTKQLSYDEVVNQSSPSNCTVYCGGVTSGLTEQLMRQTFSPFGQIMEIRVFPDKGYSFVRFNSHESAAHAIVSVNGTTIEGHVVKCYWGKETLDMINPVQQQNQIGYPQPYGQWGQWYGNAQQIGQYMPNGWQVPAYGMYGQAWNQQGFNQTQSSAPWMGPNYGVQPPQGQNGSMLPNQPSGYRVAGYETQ
UniProt Q96B77: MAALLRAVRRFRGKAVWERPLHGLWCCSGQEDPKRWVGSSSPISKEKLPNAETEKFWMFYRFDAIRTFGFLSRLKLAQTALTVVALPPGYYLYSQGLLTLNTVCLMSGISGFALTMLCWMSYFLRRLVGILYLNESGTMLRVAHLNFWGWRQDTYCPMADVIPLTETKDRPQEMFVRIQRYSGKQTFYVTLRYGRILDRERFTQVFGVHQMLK

Columns and labels:
Assay in all cases: log2 fold change, soluble protein after heating vs DMSO (PISA); higher = thermal stabilisation; K562 lysate, 10 uM; active = over 0.2 and 3.5 SD of the protein, either way, in both replicates (recomputed)
nilotinib = compound: Cc1cn(-c2cc(NC(=O)c3ccc(C)c(Nc4nccc(-c5cccnc5)n4)c3)cc(C(F)(F)F)c2)cn1 [nilotinib]
In short: (§1)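 Thermal stability, expressed as log-two fold change relative to solvent controls, is given from duplicates. Crude K562 extract in PBS pH 7.4 with 1 mM MgCl2, at 1 mg/mL protein, was treated with 10 μM compound for 30 min and heated in aliquots for 3 min across 48°C-58°C. After pooling, adjustment to 0.5% NP-40 at 4°C and centrifugation at 21,000xg for 90 min, supernatant protein was measured by TMTpro 16plex LC-MS/MS with channel sums equalised.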

[1] = compound: Cc1nc(Nc2n[nH]c3c2CN(C(=O)N[C@H](CN(C)C)c2ccccc2)C3(C)C)c2sccc2n1
In short: as §1

dasatinib = compound: Cc1nc(Nc2ncc(C(=O)Nc3c(C)cccc3Cl)s2)cc(N2CCN(CCO)CC2)n1 [dasatinib]
In short: as §1

[2] = compound: Cc1ncc(-c2ccnc(Nc3ccc(S(C)(=O)=O)cc3)n2)n1C(C)C
In short: as §1

[3] = compound: Cn1cc(-c2ccc3c(c2)CCN3C(=O)Cc2cccc(C(F)(F)F)c2)c2c(N)ncnc21
In short: as §1

quisinostat = compound: Cn1cc(CNCC2CCN(c3ncc(C(=O)NO)cn3)CC2)c2ccccc21 [quisinostat]
In short: as §1

tipifarnib = compound: Cn1cncc1[C@@](N)(c1ccc(Cl)cc1)c1ccc2c(c1)c(-c1cccc(Cl)c1)cc(=O)n2C [tipifarnib]
In short: as §1

[4] = compound: NC(=O)Nc1cc(-c2cccc(F)c2)sc1C(=O)N[C@H]1CCCNC1
In short: as §1

[5] = compound: NC(=O)c1cnc(N[C@@H]2CCCC[C@@H]2N)nc1Nc1cccc(-n2nccn2)c1
In short: as §1

[6] = compound: NC1(c2ccc(-c3nc4ccn5c(=O)[nH]nc5c4cc3-c3ccccc3)cc2)CCC1
In short: as §1

Target | log2 fold change (nilotinib) | log2 fold change [1] | log2 fold change (dasatinib) | log2 fold change [2] | log2 fold change [3] | log2 fold change (quisinostat) | log2 fold change (tipifarnib) | log2 fold change [4] | log2 fold change [5] | log2 fold change [6]
TMEM126A (UniProt Q9H061) | inactive: 0.089 | inactive: -0.009 | inactive: -0.014 | inactive: -0.068 | inactive: -0.011 | inactive: 0.177 | inactive: 0.015 | inactive: 0.02 | inactive: 0.01 | inactive: -0.079
TMEM160 (UniProt Q9NX00) | inactive: 0.183 | inactive: -0.259 | inactive: 0.082 | inactive: 0.01 | inactive: -0.084 | inactive: 0.003 | inactive: -0.399 | inactive: 0.024 | inactive: -0.029 | inactive: -0.006
TMED8 (UniProt Q6PL24) | inactive: 0.029 | inactive: 0.024 | inactive: 0.065 | inactive: -0.045 | inactive: 0.028 | inactive: -0.042 | inactive: 0.069 | inactive: 0.028 | inactive: 0.009 | inactive: 0.085
TM9SF3 (UniProt Q9HD45) | inactive: -0.038 | inactive: -0.089 | inactive: 0.014 | inactive: -0.108 | inactive: 0 | inactive: -0.004 | inactive: -0.032 | inactive: 0.007 | inactive: -0.035 | inactive: -0.032
THG1L (UniProt Q9NWX6) | inactive: 0.003 | inactive: -0.001 | inactive: -0.006 | inactive: 0.004 | inactive: 0.006 | inactive: 0.056 | inactive: 0.027 | inactive: -0.021 | inactive: 0.003 | inactive: -0.017
TMA16 (UniProt Q96EY4) | inactive: -0.062 | inactive: 0.012 | inactive: 0.004 | inactive: -0.007 | inactive: 0.003 | inactive: -0.032 | inactive: 0.041 | inactive: -0.001 | inactive: -0.005 | inactive: -0.003
TMEM164 (UniProt Q5U3C3) | inactive: 0.06 | inactive: -0.009 | inactive: -0.087 | inactive: 0.162 | inactive: -0.041 | inactive: -0.404 | inactive: -0.055 | inactive: 0.1 | inactive: 0.083 | inactive: -0.036
TLE3 isoform 4 (UniProt Q04726) | inactive: 0.011 | inactive: 0.053 | inactive: -0.002 | inactive: 0.001 | inactive: -0.038 | inactive: 0.008 | inactive: -0.003 | inactive: 0.012 | inactive: 0.001 | inactive: -0.003
TIMM10 (UniProt P62072) | inactive: -0.013 | inactive: 0.024 | inactive: 0.042 | inactive: -0.017 | inactive: 0.057 | inactive: 0.045 | inactive: 0.037 | inactive: -0.021 | inactive: 0.025 | inactive: 0.013
TMEM173 (UniProt Q86WV6) | inactive: -0.034 | inactive: -0.041 | inactive: -0.091 | inactive: -0.113 | inactive: 0.043 | inactive: -0.108 | inactive: 0.021 | inactive: -0.023 | inactive: -0.013 | inactive: -0.036
TLN1 (UniProt Q9Y490) | inactive: -0.004 | inactive: 0.002 | inactive: -0.006 | inactive: -0.009 | inactive: 0.007 | inactive: 0.014 | inactive: 0.008 | inactive: -0.011 | inactive: -0.004 | inactive: 0.005
TIPRL (UniProt O75663) | inactive: 0.011 | inactive: 0.02 | inactive: 0.026 | inactive: -0.001 | inactive: -0.02 | inactive: -0.014 | inactive: -0.006 | inactive: -0.013 | inactive: -0.011 | inactive: 0.017
TMEM126B (UniProt Q8IUX1) | inactive: 0.024 | inactive: -0.022 | inactive: 0.042 | inactive: 0.026 | inactive: -0.016 | inactive: 0.084 | inactive: 0.07 | inactive: -0.06 | inactive: 0.034 | inactive: 0.018
TMEM167A (UniProt Q8TBQ9) | inactive: 0.031 | inactive: -0.001 | inactive: 0.017 | inactive: 0.047 | inactive: -0.061 | inactive: -0.04 | inactive: -0.057 | inactive: -0.028 | inactive: -0.036 | inactive: 0.034
TGFBRAP1 (UniProt Q8WUH2) | inactive: 0.005 | inactive: -0.043 | inactive: -0.048 | inactive: -0.015 | inactive: 0.06 | inactive: -0.076 | inactive: 0.004 | inactive: 0.029 | inactive: 0.009 | inactive: 0.04
TLCD4 (UniProt Q96MV1) | inactive: 0.061 | inactive: 0.064 | inactive: 0.065 | inactive: 0 | inactive: 0.011 | inactive: 0.204 | inactive: -0.028 | inactive: -0.047 | inactive: -0.049 | inactive: 0.025
TMEM165 (UniProt Q9HC07) | inactive: -0.067 | inactive: 0.033 | inactive: 0.023 | inactive: 0.044 | inactive: 0.033 | inactive: -0.039 | inactive: 0 | inactive: 0.098 | inactive: 0.02 | inactive: 0.005
THEM6 (UniProt Q8WUY1) | inactive: 0.054 | inactive: 0.032 | inactive: -0.056 | inactive: -0.055 | inactive: -0.078 | inactive: 0.077 | inactive: 0.025 | inactive: -0.003 | inactive: 0.001 | inactive: 0.082
TLE5 isoform 2 (UniProt Q08117) | inactive: 0.094 | inactive: -0.044 | inactive: -0.058 | inactive: 0.03 | inactive: -0.013 | inactive: -0.052 | inactive: 0.005 | inactive: 0.024 | inactive: -0.037 | inactive: -0.056
TIMM21 (UniProt Q9BVV7) | inactive: 0.037 | inactive: -0.074 | inactive: -0.029 | inactive: -0.054 | inactive: -0.026 | inactive: -0.109 | inactive: 0.065 | inactive: 0.026 | inactive: 0.011 | inactive: 0.023
TGS1 (UniProt Q96RS0) | inactive: -0.008 | inactive: 0.009 | inactive: 0.007 | inactive: -0.036 | inactive: 0.002 | inactive: -0.024 | inactive: 0 | inactive: 0.023 | inactive: 0.013 | inactive: 0.034
TMEM102 (UniProt Q8N9M5) | inactive: 0.105 | inactive: 0.174 | – | inactive: -0.054 | – | inactive: -0.336 | inactive: 0.139 | inactive: 0.073 | – | –
THAP11 (UniProt Q96EK4) | inactive: -0.011 | inactive: -0.284 | inactive: -0.034 | inactive: -0.075 | inactive: 0.106 | – | inactive: 0.044 | – | inactive: -0.003 | inactive: -0.022
TMEM123 (UniProt Q8N131) | inactive: 0.033 | inactive: -0.099 | inactive: -0.02 | inactive: -0.084 | inactive: 0.038 | – | inactive: 0.038 | – | inactive: -0.125 | inactive: 0.019
TMC1 (UniProt Q8TDI8) | inactive: -0.073 | inactive: -0.049 | – | inactive: -0.28 | – | active: -0.552 | inactive: 0.015 | inactive: -0.058 | inactive: -0.006 | inactive: 0
TMED1 (UniProt Q13445) | inactive: 0.056 | inactive: 0.083 | inactive: -0.034 | inactive: -0.03 | inactive: -0.107 | inactive: 0.245 | inactive: -0.17 | inactive: 0.002 | inactive: 0.031 | inactive: 0.099
TIPIN (UniProt Q9BVW5) | inactive: -0.072 | inactive: 0.029 | inactive: 0.002 | inactive: -0.026 | inactive: 0.002 | inactive: 0.023 | inactive: -0.074 | inactive: -0.038 | inactive: -0.076 | inactive: 0.057
TIA1 (UniProt P31483) | inactive: -0.229 | inactive: -0.071 | inactive: -0.012 | inactive: 0.026 | inactive: -0.023 | inactive: 0.054 | inactive: -0.022 | inactive: 0.029 | inactive: 0.067 | inactive: -0.086
TMEM186 (UniProt Q96B77) | inactive: 0.032 | inactive: 0.026 | inactive: 0.057 | inactive: -0.058 | inactive: -0.086 | inactive: 0.029 | inactive: 0.057 | inactive: 0.017 | inactive: -0.056 | inactive: -0.025

Two entries picked at random from those above:
Target | log2 fold change (nilotinib) | log2 fold change [1] | log2 fold change (dasatinib) | log2 fold change [2] | log2 fold change [3] | log2 fold change (quisinostat) | log2 fold change (tipifarnib) | log2 fold change [4] | log2 fold change [5] | log2 fold change [6]
TMEM173 (UniProt Q86WV6) | inactive: -0.034 | inactive: -0.041 | inactive: -0.091 | inactive: -0.113 | inactive: 0.043 | inactive: -0.108 | inactive: 0.021 | inactive: -0.023 | inactive: -0.013 | inactive: -0.036
THG1L (UniProt Q9NWX6) | inactive: 0.003 | inactive: -0.001 | inactive: -0.006 | inactive: 0.004 | inactive: 0.006 | inactive: 0.056 | inactive: 0.027 | inactive: -0.021 | inactive: 0.003 | inactive: -0.017
